Measured values: patent publication US6759415B1, “Hydantoin thiohydantoin pyrimidinedione and thioxopyrimidinone derivatives preparation method and use as medicines” (Societe de Conseils de Recherches et d' Applications …, priority 1999, dated 2004)
Some entries share one result that the patent states for a list of compounds.

Molecular target: at least one of the sub-types of somatostatin receptors (sst1, sst2, sst3, sst4, sst5)
Test: Affinity for the sub-types of human somatostatin receptors: inhibition of [125I-Tyr11]SRIF-14 binding, sub-type not stated for the results
Conditions: inhibition constant for at least one of the sub-types of somatostatin receptors; [125I-Tyr11]SRIF-14, CHO-K1 membranes; compound = scaffold of the table (drawing 2556 Table I, drawing 2559 Table II) + R'3 + R'4

Compound	Ki
CN(C)CCCCCCN1C(=O)CC(c2nc(-c3ccccc3)c[nH]2)N(CC2CCCCC2)C1=S (centres unmarked) [drawing 2563 (CH2)6NMe2]	< 1000 nM
NCCCCN1C(=O)[C@H](Cc2nc(-c3ccccc3)c[nH]2)N(Cc2c[nH]c3ccccc23)C1=S [drawing 2557 (CH2)4NH2]	< 1000 nM
NCCCCCCN1C(=O)[C@H](Cc2nc(-c3ccccc3)c[nH]2)N(CCc2c[nH]c3ccccc23)C1=S [drawing 2558 (CH2)6NH2]	< 1000 nM
NCCCCCN1C(=O)CC(c2nc(-c3ccccc3)c[nH]2)N(Cc2cccc([N+](=O)[O-])c2)C1=S (centres unmarked) [drawing 2561 (CH2)5NH2]	< 1000 nM
NCCCCCN1C(=O)CC(c2nc(-c3ccccc3)c[nH]2)N(Cc2c[nH]c3ccccc23)C1=S (centres unmarked) [drawing 2560 (CH2)5NH2]	< 1000 nM
COc1ccc(CN2C(=S)N(CCCCCCN)C(=O)CC2c2nc(-c3ccccc3)c[nH]2)cc1 (centres unmarked) [drawing 2562 (CH2)6NH2]	< 1000 nM
NCCCN1C(=O)[C@H](Cc2nc(-c3ccccc3)c[nH]2)N(Cc2c[nH]c3ccccc23)C1=S [drawing 2557 (CH2)3NH2]	< 1000 nM
NCCCCCN1C(=O)[C@H](Cc2nc(-c3ccccc3)c[nH]2)N(Cc2c[nH]c3ccccc23)C1=S [drawing 2557 (CH2)5NH2]	< 1000 nM
NCCCCCN1C(=O)CC(c2nc(-c3ccccc3)c[nH]2)N(Cc2ccsc2)C1=S (centres unmarked) [drawing 2564 (CH2)5NH2]	< 1000 nM
NCCCCCN1C(=O)CC(c2nc(-c3ccccc3)c[nH]2)N(CC2CCCCC2)C1=S (centres unmarked) [drawing 2563 (CH2)5NH2]	< 1000 nM
NCCCCN1C(=O)CC(c2nc(-c3ccccc3)c[nH]2)N(Cc2c[nH]c3ccccc23)C1=S (centres unmarked) [drawing 2560 (CH2)4NH2]	< 1000 nM
COc1ccc(CN2C(=S)N(CCCCCN)C(=O)CC2c2nc(-c3ccccc3)c[nH]2)cc1 (centres unmarked) [drawing 2562 (CH2)5NH2]	< 1000 nM
NCCCCCCN1C(=O)[C@H](Cc2nc(-c3ccccc3)c[nH]2)N(Cc2c[nH]c3ccccc23)C1=S [drawing 2557 (CH2)6NH2]	< 1000 nM
COc1ccc(CN2C(=S)N(CCCCCCN(C)C)C(=O)CC2c2nc(-c3ccccc3)c[nH]2)cc1 (centres unmarked) [drawing 2562 (CH2)6NMe2]	< 1000 nM
NCCCCCCN1C(=O)CC(c2nc(-c3ccccc3)c[nH]2)N(Cc2c[nH]c3ccccc23)C1=S (centres unmarked) [drawing 2560 (CH2)6NH2]	< 1000 nM
NCCCCCN1C(=O)[C@H](Cc2nc(-c3ccccc3)c[nH]2)N(CCc2c[nH]c3ccccc23)C1=S [drawing 2558 (CH2)5NH2]	< 1000 nM
NCCCCCCN1C(=O)CC(c2nc(-c3ccccc3)c[nH]2)N(CC2CCCCC2)C1=S (centres unmarked) [drawing 2563 (CH2)6NH2]	< 1000 nM
NCCCCCCN1C(=O)CC(c2nc(-c3ccccc3)c[nH]2)N(Cc2cccc([N+](=O)[O-])c2)C1=S (centres unmarked) [drawing 2561 (CH2)6NH2]	< 1000 nM
CN(C)CCCCCCN1C(=O)CC(c2nc(-c3ccccc3)c[nH]2)N(Cc2cccc([N+](=O)[O-])c2)C1=S (centres unmarked) [drawing 2561 (CH2)6NMe2]	< 1000 nM
NCCCCCCN1C(=O)CC(c2nc(-c3ccccc3)c[nH]2)N(Cc2ccsc2)C1=S (centres unmarked) [drawing 2564 (CH2)6NH2]	< 1000 nM
NCCCCN1C(=O)[C@H](Cc2nc(-c3ccccc3)c[nH]2)N(CCc2c[nH]c3ccccc23)C1=S [drawing 2558 (CH2)4NH2]	< 1000 nM
NCCCN1C(=O)[C@H](Cc2nc(-c3ccccc3)c[nH]2)N(CCc2c[nH]c3ccccc23)C1=S [drawing 2558 (CH2)3NH2]	< 1000 nM
CN(C)CCCCCCN1C(=O)CC(c2nc(-c3ccccc3)c[nH]2)N(Cc2ccsc2)C1=S (centres unmarked) [drawing 2564 (CH2)6NMe2]	< 1000 nM
